Measured values as given in publication PMC4237471.

Protein sequences, listed by entry. Tags and fused reporters are not part of them. Lines headed by an entry give the natural chain unless they say otherwise; changes in a name come on top.
UniProt O00499: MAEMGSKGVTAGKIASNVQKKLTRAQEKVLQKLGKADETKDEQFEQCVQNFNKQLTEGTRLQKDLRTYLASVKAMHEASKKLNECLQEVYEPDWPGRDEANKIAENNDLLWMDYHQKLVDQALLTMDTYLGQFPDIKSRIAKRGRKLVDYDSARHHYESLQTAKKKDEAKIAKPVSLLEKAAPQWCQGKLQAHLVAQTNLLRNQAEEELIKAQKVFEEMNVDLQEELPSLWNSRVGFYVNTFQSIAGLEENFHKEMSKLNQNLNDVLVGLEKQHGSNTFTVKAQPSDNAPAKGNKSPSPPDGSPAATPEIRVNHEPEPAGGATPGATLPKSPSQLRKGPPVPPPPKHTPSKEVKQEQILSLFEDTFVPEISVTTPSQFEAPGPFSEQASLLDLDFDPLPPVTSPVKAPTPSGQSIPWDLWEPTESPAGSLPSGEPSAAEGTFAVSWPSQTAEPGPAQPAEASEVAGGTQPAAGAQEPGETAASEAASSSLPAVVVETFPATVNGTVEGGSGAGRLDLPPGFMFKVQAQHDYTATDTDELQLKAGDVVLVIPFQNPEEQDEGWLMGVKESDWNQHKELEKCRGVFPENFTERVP
UniProt O08539: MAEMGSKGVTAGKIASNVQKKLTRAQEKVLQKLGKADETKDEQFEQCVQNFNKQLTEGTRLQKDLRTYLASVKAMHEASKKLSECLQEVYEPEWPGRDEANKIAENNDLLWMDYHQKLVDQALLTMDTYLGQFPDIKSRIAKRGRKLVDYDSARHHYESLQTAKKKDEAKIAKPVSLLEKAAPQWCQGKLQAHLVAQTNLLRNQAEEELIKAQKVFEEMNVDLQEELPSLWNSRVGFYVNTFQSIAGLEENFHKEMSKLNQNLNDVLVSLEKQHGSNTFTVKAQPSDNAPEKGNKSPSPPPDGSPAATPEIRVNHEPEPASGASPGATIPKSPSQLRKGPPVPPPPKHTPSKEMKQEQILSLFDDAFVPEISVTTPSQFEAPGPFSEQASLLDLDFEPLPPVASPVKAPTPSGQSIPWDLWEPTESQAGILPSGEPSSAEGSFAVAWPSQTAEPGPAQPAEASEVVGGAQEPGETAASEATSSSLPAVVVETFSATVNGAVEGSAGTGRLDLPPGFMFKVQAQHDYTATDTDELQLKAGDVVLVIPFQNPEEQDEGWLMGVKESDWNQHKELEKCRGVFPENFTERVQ
UniProt Q91YD9: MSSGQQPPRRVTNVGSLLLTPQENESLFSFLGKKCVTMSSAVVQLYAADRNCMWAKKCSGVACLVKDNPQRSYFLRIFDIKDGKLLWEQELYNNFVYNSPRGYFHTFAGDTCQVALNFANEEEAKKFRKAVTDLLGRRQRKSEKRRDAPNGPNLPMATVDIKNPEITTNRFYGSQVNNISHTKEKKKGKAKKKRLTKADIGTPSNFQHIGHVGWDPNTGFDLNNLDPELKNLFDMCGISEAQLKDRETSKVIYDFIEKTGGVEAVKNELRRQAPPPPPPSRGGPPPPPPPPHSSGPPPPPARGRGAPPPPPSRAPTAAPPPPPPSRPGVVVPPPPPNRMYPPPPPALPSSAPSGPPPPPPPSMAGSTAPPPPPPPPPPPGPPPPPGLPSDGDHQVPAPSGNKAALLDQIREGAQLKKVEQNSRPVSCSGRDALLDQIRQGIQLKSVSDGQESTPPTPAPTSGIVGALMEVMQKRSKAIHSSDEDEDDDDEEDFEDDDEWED

Tests used:
[1] = target: GFP-tagged human amph2-D151N (human) (UniProt O00499); assay: co-IP; GFP-Trap (Chromotek) precipitation of GFP-tagged amph2 constructs expressed in C2C12 cells; Western blot for endogenous N-WASP and GFP
[2] = target: GFP-tagged human amph2-R154Q (human) (UniProt O00499); assay: as above
[3] = target: amphiphysin-2 (amph2), endogenous (mouse (endogenous in primary myofibers and C2C12)) (UniProt O08539); assay: co-IP; endogenous amph2 precipitated with anti-amph2 mAb cross-linked to Dynabeads protein G, RIPA lysates of primary myofibers (agrin 10 days) and C2C12 myotubes (legend of Fig 3B also names mouse muscle); Western blot for N-WASP
[4] = target: N-WASP, endogenous (mouse cells) (mouse (endogenous in primary myofibers and C2C12)) (UniProt Q91YD9); assay: co-IP; endogenous N-WASP precipitated with anti-N-WASP mAb cross-linked to Dynabeads protein G, RIPA lysate of primary myofibers; Western blot for amph2

Substance	binding [1]	binding [2]	binding [3]	binding [4]
N-WASP, endogenous (mouse cells) (from UniProt Q91YD9 1-501)	binds	binds	binds	–
amphiphysin-2 (amph2), endogenous (from UniProt O08539-2)	–	–	–	binds

No constants are given. Whether binding was seen depends on the method and setting. Binding seen in cells or lysates may run through a third protein. Binding can be weak; no strength is given.
